Measured values from PubChem BioAssay AID2685 (National Center for Advancing Translational Sciences (NCATS), 2010).
The list shows a part of the results. Further columns of the screen follow, without active or inactive calls. Most of these compounds were active or inconclusive in the main read-out, so they are no random draw. Words in brackets tell the shape of the fitted curve; partial curves, single points and poor fits give uncertain potencies.

Assay: qHTS Assay for Lipid Storage Modulators in Drosophila S3 Cells;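 as to cell number change: cells counted by Cell Tracker Red CMTPX staining in the red channel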
Details: BODIPY lipid droplet fluorescence, 18-24 h; for cell number change: measured here: cell count max response, cells fed with added oleic acid
Outline: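 Laser-scanning cytometry quantifies lipid droplet accumulation (500–530 nm total intensity; droplet/cell object ratio) in oleic acid-fed (400 uM added) Drosophila S3 cells treated with a concentration series. 20 uM Triacsin C defined 100% inhibition.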

[1] = measured here: lipid fluorescence (Fed channel) AC50, cells fed with added oleic acid
[2] = measured here: cell number channel AC50, cells fed with added oleic acid

Compound	cell number change [%]	AC50 [1]	AC50 [2]
Cc1cc(C)c(S(=O)(=O)N2CCN(C(=O)C3CCCO3)CC2)c(C)c1 (stereo unspecified)	-1.82	29.1 µM [rising, single point]	–
COc1cccc2cc(CC(=O)c3ccc(C)cc3C)c(=O)oc12	-11.3	–	–
Cc1ccc(-c2cc(C(=O)O)n[nH]2)o1	-48.7	29.1 µM [falling, single point]	32.6 µM [falling, partial curve, poor fit]
O=C(c1ccco1)N1CCN(C(=O)C2CC(=O)N(c3ccc(Cl)cc3)C2)CC1 (stereo unspecified)	32.8	–	0.82 µM [rising, full curve, poor fit]
Cc1cc(NS(=O)(=O)c2ccc(NC(=O)CSc3nnc(-c4ccco4)n3C)cc2)nc(C)n1	55.4	4.61 µM [falling, partial curve, poor fit]	0.116 µM [rising, full curve, poor fit]
CCOC(=O)/C(=C\c1ccc([N+](=O)[O-])o1)NC(=O)c1ccccc1	6.71	0.00461 µM [falling, full curve, poor fit]	–
Cc1ccc(OCc2nc(-c3cccs3)no2)c([N+](=O)[O-])c1	–	–	0.461 µM [rising, single point]
Cn1c(=O)[nH]c(=O)c2c1nc(CN1CCN(c3ccc(F)cc3)CC1)n2CCCc1ccccc1	2.85	–	–
CCOC(=O)Cc1csc(NC(=O)c2c(O)c3ccccc3n(C)c2=O)n1	2.36	–	–
COc1ccc(NC(=O)COC(=O)c2ccc(N3CCCC3=O)cc2)cc1	13.1	–	–
C=CCn1c(SCc2nc(N)nc(N(C)C)n2)nnc1-c1cccnc1	-16.2	–	2.91 µM [falling, single point]
Cc1ccc(CS(=O)(=O)CCC(=O)NCCN(C)Cc2ccccc2)cc1	5.68	–	–
Cc1nc(C(=O)Nc2ccccc2)sc1C1(C)CC(c2cccc([N+](=O)[O-])c2)=NO1 (stereo unspecified)	8	29.1 µM [rising, single point]	–
O=C(NNC(=O)C1CCCN(S(=O)(=O)c2ccc3ccccc3c2)C1)C1CC1 (stereo unspecified)	20.6	0.82 µM [rising, partial curve, poor fit]	–
CN(CC(=O)Nc1ccc(F)cc1)C(=O)c1ccncc1	–	3.66 µM [falling, partial curve]	–
S=C(N=Nc1ccccc1)NNc1ccccc1	-83	13 µM [falling, partial curve]	13 µM [falling, partial curve]
Cc1c(Br)c(C(F)(F)F)nn1CC(=O)NCCCn1ccnc1	-12.2	0.0058 µM [falling, full curve, poor fit]	–
O=c1[nH]c(Cc2ccccn2)nc2scc(-c3ccccc3Cl)c12	-1.59	–	–
CCn1c(C)nc2cc(S(=O)(=O)C(F)F)ccc21	-7.28	29.1 µM [rising, single point]	–
CCCCc1nc2cc(C(=O)N3CCNC(=O)C3CC(=O)OC)ccc2o1 (stereo unspecified)	29.2	–	2.91 µM [rising, full curve, poor fit]
CCC1Nc2ccccc2-c2nnc(SC)nc2O1 (stereo unspecified)	6.96	4.11 µM [falling, single point]	2.59 µM [falling, single point]
O=C(CCl)NC(=O)NC12CC3CC(CC(C3)C1)C2	-28.7	2.06 µM [rising, single point]	–

Compound	cell number change [%]	AC50 [1]	AC50 [2]
CCCn1nc(C(=O)OCC(=O)Nc2cccc(S(N)(=O)=O)c2)c2ccccc2c1=O	-6.42	–	–
Cc1cccc(NC(=S)N/N=C/c2ccc3c(c2)OCO3)c1	-15	0.13 µM [falling, full curve, poor fit]	–
COc1nccnc1NS(=O)(=O)c1ccc(NC(=S)NC(=O)c2ccc(F)cc2)cc1	–	0.517 µM [rising, partial curve]	–
O=S(=O)(NC1CCSc2ccccc21)c1ccccc1 (stereo unspecified)	6.31	6.51 µM [falling, single point]	–
COc1cc2cc(C(c3nnnn3C3CCCC3)N3CCc4ccccc43)c(=O)[nH]c2cc1OC (stereo unspecified)	-13.3	–	–
CCC(C)N(C)C1CCN(C(=S)Nc2cccc(OC)c2)CC1 (stereo unspecified)	–	18.4 µM [rising, single point]	–
COc1cc(C(=O)NN(CCC#N)C2=NS(=O)(=O)c3ccccc32)cc(OC)c1OC	-9.62	–	–
CCOC(=O)c1c(-c2ccccc2)csc1NC(=O)c1ccc(S(=O)(=O)N2CCOCC2)cc1	10.3	6.51 µM [rising, partial curve]	6.51 µM [rising, single point]
Cc1ccccc1-n1nc(-c2cccnc2)cc1C(=O)N/N=C/c1ccncc1	32.5	16.4 µM [rising, single point]	8.2 µM [rising, single point]
CC(C)c1cc(=O)oc2c3c4c(cc12)CCCN4CCC3	-3.3	29.1 µM [rising, single point]	–
COc1ccc(NC(=O)COC(=O)CCNS(=O)(=O)c2ccccc2)cc1OC	-18.8	3.66 µM [falling, full curve]	–
CCN(C(=O)c1cc(Cl)ccc1OC)c1ccccc1	15.2	–	–
O=C(c1cc(Br)c(Br)s1)N1CCN(c2ccccn2)CC1	12.4	5.17 µM [falling, partial curve]	–
CCOc1ccc(CCNC(=O)C2CCN(c3ccc(N4CCOCC4)nn3)CC2)cc1OCC	5.09	–	–
CC(NC(=O)/C(C#N)=C/c1cn(-c2ccccc2)nc1-c1ccc(F)cc1)c1ccccc1 (stereo unspecified)	18.8	1.16 µM [rising, full curve]	–
Cc1ccc(OCC(=O)NCCNC(=O)c2ccncc2)cc1	-3.81	–	–
COc1cccc(/C=C/C(=O)Nc2ccc3[nH]c(=O)[nH]c3c2)c1	-14.6	–	–
O=C(NCc1ccccn1)c1cc2cc(Br)ccc2oc1=O	9.99	29.1 µM [falling, single point]	–
Cc1ccnc(NS(=O)(=O)c2ccc(NC(=O)CCc3ccccc3)cc2)n1	5.56	–	3.66 µM [rising, partial curve, poor fit]
O=C1C2C3C=CC(C3=C(c3ccccc3)c3ccccc3)C2C(=O)N1CCO (stereo unspecified)	41.3	–	18.4 µM [rising, partial curve, poor fit]
COc1ccc(CN2C(=O)c3ccccc3C2C(=O)NCC2CCCO2)c(OC)c1 (stereo unspecified)	10.3	0.651 µM [rising, single point]	–
CN(Cc1cccs1)C(=O)CSc1nc(N)cc(N)n1	13.3	–	–

Compound	cell number change [%]	AC50 [1]	AC50 [2]
CC(CCc1ccccc1)NC(=O)CSc1nccc(=O)[nH]1 (stereo unspecified)	5.14	0.00461 µM [rising, full curve, poor fit]	–
CCOc1cc(/C=N/Nc2nnc(C)n2N)ccc1OC(C)=O	-30.4	20.6 µM [falling, single point]	29.1 µM [falling, single point]
O=C(NCc1ccc2c(c1)OCO2)C1CCN(c2ccc(S(=O)(=O)N3CCCC3)cc2)CC1	–	0.92 µM [rising, full curve]	0.58 µM [rising, single point]
CCc1ccc(OCc2nnc(SCC(=O)NCC3CCCO3)n2C)cc1 (stereo unspecified)	16.7	–	–
O=C(Cn1cnc2ccccc2c1=O)NC1CCS(=O)(=O)C1 (stereo unspecified)	-23.8	–	6.51 µM [falling, partial curve, poor fit]
CCc1ccc2oc(=O)cc(CN(C)Cc3ccccc3)c2c1	-5.88	–	–
CCc1ccc(NC(=O)C(=O)c2ccccc2NC(C)=O)cc1	-1.42	16.4 µM [rising, partial curve, poor fit]	–
Cn1c(C(=O)NCCN2CCOCC2)cc2c(=O)n(C)c3ccccc3c21	-25.7	25.9 µM [falling, single point]	–
CC1(C)CC2CC(C)(CN2C(=O)C23CCC(C)(C(=O)C2)C3(C)C)C1 (stereo unspecified)	-9.45	5.8 µM [falling, single point]	–
CCOC(=O)Cn1nc(C)n(-c2ccc(Br)cc2)c1=O	-20	–	–
C=CCn1c(C(c2ccccc2)c2ccccc2)n[nH]c1=S	–	6.51 µM [falling, single point]	–
CC(C)=CC(=O)N1CCCC(N2CCN(c3ccc(F)cc3)CC2)C1 (stereo unspecified)	-9.38	–	–
CCN(C(=O)COC(=O)c1cccnc1Nc1cccc(C(F)(F)F)c1)C1CCS(=O)(=O)C1 (stereo unspecified)	13.1	6.51 µM [falling, partial curve]	5.17 µM [falling, single point]
O=C1CSC2=NCN(c3ccccc3)CN12	-54.8	–	29.1 µM [falling, single point]
Cn1c(=NC(=O)c2ccccc2[N+](=O)[O-])sc2cccc(F)c21	12.4	–	2.31 µM [rising, partial curve]
O=C(Nc1cccc(S(=O)(=O)N2CCCCCC2)c1)c1ccc(=O)[nH]c1	-1.69	0.00517 µM [falling, full curve, poor fit]	0.00517 µM [falling, full curve, poor fit]
c1ccc(-c2cnnn2-c2ccccc2)cc1	31.6	29.1 µM [rising, single point]	32.6 µM [rising, single point]
Cc1ccc(NC(=O)C2=CC(c3ccc(C)cc3)=NS(=O)(=O)N2C)cc1	38.9	16.4 µM [falling, partial curve]	5.17 µM [rising, partial curve]
S=C(NCc1ccc(Cl)cc1Cl)NC1CCCCC1	–	0.58 µM [rising, full curve]	–
CC(=O)c1c[nH]c(C(=O)Nc2ccc(N3CCCCCC3)cc2)c1	-36.9	9.2 µM [falling, single point]	29.1 µM [falling, single point]
